Assay results reported in article doi:10.1101/2021.02.12.430913.
No constants are given. Whether binding was seen depends on the method and setting. In cells and extracts the contact can be indirect. Binding can be weak; no strength is given.

Chains of the proteins cited; added tags and fusions are not shown.
UniProt O09106: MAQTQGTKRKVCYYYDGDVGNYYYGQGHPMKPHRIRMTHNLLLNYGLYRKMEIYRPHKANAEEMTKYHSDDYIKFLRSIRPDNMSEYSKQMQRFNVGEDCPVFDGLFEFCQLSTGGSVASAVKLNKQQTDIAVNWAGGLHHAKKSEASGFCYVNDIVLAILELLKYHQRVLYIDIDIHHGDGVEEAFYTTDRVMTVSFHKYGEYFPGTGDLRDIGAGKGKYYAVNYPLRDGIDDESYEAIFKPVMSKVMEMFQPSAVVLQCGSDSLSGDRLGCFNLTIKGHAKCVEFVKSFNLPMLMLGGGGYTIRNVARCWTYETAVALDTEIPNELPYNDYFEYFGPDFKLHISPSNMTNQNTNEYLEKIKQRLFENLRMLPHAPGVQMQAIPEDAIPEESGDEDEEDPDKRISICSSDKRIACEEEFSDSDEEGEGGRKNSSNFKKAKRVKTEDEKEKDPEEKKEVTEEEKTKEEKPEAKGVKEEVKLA

Target: histone deacetylase 1 (HDAC1) (mouse (endogenous in testis)) (UniProt O09106)
Assay: co-IP

## potassium channel tetramerization domain containing 19 (KCTD19) (from UniProt Q562E2-2)
  binding: binds
